# Assay results reported in US20080306002A1, “Combination Therapy for Preventing Angiogenesis” (The General Hospital Corporation, priority 2005, published 2008).
# At least one compound was matched to its structure with a doubt left.
# Tested on: NF-κB
# Assay: NF-κB reporter assay in DLD-1^HIF-kd cells in hypoxia
# Type: cell-based
# Method: Cell lines. DLD-1 and Caco2 cells (ATCC) were stably transfected with HIF-1α siRNA constructs (pSuper.retro, OligoEngine), pSR.HIF-1α1470 or pSR.HIF-1α2192^10. […] Transient transfections were performed using Lipofectamine 2000 (Invitrogen).
# Transfections and Reporter Assays. 0.1-0.2 μg reporter constructs were co-transfected with 2 ng of pRL-CMV (Promega) and luciferase activity was measured with the Dual Luciferase Reporter Assay System (Promega). pRL-null, a promoter-less Renilla construct, was used when cells were co-transfected with a K-ras expression vector^29. The relative luciferase activity was calculated as Firefly/Renilla luciferase activity. The level of ‘hypoxic induction’ was the ratio between the relative luciferase activity in hypoxia to that in normoxia.
smiles,measurement,value
S=C(S)N1CCCC1 [pyrrolidinedithiocarbamate],induction of NF-κB promoter activity by hypoxia,strongly blocked
